Measurements published in paper PMC6981148.
Results are given in words; binding and its absence hold for the method and conditions named. Binding seen in cells or lysates may run through a third protein.

By UniProt entry, the sequences of proteins in these tests, tags left out. Residues count along the entry.
UniProt P40337: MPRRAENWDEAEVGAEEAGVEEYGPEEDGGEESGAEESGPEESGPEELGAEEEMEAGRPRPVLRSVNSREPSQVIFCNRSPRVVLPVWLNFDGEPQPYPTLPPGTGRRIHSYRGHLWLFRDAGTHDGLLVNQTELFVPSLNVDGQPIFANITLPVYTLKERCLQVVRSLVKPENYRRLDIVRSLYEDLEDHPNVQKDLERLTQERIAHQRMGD
UniProt P07996, residues 19-1170: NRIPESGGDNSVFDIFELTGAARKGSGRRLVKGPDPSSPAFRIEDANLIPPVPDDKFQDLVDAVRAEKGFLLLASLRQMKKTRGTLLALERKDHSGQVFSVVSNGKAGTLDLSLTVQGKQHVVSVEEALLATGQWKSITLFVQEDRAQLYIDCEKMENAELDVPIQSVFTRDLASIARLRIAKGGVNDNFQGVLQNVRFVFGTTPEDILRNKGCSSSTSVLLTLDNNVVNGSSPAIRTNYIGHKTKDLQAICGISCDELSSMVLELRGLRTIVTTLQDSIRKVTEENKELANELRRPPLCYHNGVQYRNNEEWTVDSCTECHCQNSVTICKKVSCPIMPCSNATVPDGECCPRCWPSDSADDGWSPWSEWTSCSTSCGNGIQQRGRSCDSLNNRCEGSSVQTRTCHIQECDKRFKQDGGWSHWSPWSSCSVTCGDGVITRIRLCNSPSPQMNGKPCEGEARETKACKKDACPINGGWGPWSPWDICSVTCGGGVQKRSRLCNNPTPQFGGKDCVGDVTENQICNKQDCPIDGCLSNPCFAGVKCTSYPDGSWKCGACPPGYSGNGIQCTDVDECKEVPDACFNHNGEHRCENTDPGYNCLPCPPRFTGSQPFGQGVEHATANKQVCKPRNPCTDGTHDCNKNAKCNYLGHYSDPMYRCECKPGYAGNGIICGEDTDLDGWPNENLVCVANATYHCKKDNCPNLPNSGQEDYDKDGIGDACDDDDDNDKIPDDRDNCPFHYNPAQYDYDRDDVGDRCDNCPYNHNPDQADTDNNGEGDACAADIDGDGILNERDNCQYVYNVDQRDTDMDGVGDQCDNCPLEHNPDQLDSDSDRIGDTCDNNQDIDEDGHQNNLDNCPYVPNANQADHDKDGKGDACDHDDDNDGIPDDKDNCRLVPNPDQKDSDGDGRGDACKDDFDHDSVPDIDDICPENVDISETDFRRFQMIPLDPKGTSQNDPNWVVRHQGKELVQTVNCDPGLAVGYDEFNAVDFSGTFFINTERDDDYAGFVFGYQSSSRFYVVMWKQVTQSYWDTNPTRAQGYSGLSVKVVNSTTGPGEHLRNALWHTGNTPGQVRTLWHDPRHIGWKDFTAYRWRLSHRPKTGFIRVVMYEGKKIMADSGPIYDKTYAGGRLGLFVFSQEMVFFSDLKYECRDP

Tests used:
[1] = biological target: von Hippel-Lindau protein (pVHL) (human) (UniProt P40337); assay: co-IP; total lysates (500 ug) of pVHL-positive cells in RIPA buffer (150 mM NaCl, 10 mM Tris HCl, 1% SDS, 1% nonidet P-40, 1% sodium deoxycholate, pH 7.4); immunoprecipitation with anti-pVHL or anti-TSP-1 antibodies, 4 °C, 16 hours, protein G; western blot against pVHL and TSP-1
[2] = biological target: thrombospondin-1 (TSP-1) (human (endogenous in ccRCC cell lines)) (UniProt P07996); assay: as above

| binding [1] | binding [2] | Substance |
| --- | --- | --- |
| no binding | – | thrombospondin-1 (TSP-1) (from UniProt P07996 19-1170) |
| – | no binding | von Hippel-Lindau protein (pVHL) (from UniProt P40337 1-213) |
